Source: patent US6632921B1 (G. D Searle & Co, priority 1995, dated 2003)

Columns and labels:
[1] = general procedure: Boc solid-phase peptide synthesis; hydroxymethyl-resin of styrene/1% divinylbenzene; dicyclohexylcarbodiimide; disuccinimidylcarbonate/4-dimethylaminopyridine; settings: whole synthesis, bis-trifluoroacetate
[2] = general procedure: Boc solid-phase peptide synthesis; N-BOC-L-leucyl-O-methylphenylacetamido-methyl-resin; dicyclohexylcarbodiimide; disuccinimidylcarbonate/4-dimethylaminopyridine; settings: whole synthesis, bis-trifluoroacetate

| Substance | final HPLC purity [1] | final HPLC purity [2] |
| --- | --- | --- |
| L-alanine, 3-cyclohexyl-N-[[(il-amino-undecanoyl)-L-seryl]-L-lysyl]-, bis-trifluoroacetate | 95% |  |
| L-leucine, N-[[(11-amino-undecanoyl)-L-seryl]-L-lysyl]-, bis-trifluoroacetate |  | 98% |
